Data on 60 molecules can be found in paper PMC6925144, “A prospective compound screening contest identified broader inhibitors for Sirtuin 1” (Scientific Reports, 2019).

The chains behind the UniProt entries cited, without tags or fusion partners. Residues count along the entry.
UniProt Q96EB6, 2-747 limits assumed: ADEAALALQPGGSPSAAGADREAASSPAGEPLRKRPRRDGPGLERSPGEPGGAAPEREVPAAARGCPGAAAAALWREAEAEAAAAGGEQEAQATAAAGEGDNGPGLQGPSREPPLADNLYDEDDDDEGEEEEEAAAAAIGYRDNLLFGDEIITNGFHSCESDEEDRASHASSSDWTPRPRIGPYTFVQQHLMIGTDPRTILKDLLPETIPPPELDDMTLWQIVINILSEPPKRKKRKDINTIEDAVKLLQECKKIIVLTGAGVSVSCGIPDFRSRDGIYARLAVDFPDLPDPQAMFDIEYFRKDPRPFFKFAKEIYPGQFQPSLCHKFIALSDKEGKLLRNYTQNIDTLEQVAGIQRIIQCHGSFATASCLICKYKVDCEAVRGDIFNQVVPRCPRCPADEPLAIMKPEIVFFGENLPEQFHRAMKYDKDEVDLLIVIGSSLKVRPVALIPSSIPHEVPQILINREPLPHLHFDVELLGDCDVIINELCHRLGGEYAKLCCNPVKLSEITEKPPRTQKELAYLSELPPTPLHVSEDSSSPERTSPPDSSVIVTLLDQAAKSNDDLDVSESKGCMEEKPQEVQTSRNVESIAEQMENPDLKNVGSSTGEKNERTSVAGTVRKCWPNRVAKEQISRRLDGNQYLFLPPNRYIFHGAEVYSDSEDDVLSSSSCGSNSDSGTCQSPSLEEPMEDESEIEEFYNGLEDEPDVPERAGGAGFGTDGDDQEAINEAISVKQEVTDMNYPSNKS

Over roughly 3,200 compounds, “TSA(without NAD+) / Primary screening (TSA) / delta Tm (K)” has its median near -0.07; the highest 2% begin near 0.37. This is one part of the list.

The assay deals with NAD-dependent deacetylase Sirtuin 1 (human, UniProt Q96EB6). Nature of the assay: primary screen, delta tm. To be noted: 10 µM. Also on record: single well (n = 1). Put shortly: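 Thermal shift of Sirtuin 1 measured without NAD+, compound at 10 µM (n = 1); value is ΔTm, with hits defined as ΔTm > 0.45 K or < −1.5 K. Hits retested at 5, 10, 20 µM (n = 4) and counterscreened on bovine carbonic anhydrase and ABL1 SH2 domain.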
As to `Cc1ccc(C2C(C(=O)c3cc4ccccc4o3)=C(O)C(=O)N2CCCN2CCOCC2)cc1` (stereo not drawn), the “TSA(without NAD+) / Primary screening (TSA) / delta Tm (K)” value is given as 0.02 K. The same measure for `CC1CC(C)CN(C(=O)COc2ccc3c4c(c(=O)oc3c2)CCC4)C1` (stereo not drawn): 0.03 K; for `Cc1cnc(C(=O)NC2CCCC(C)C2C)cn1` (stereo not drawn): 0.07 K; for `CCCC(C)(O)C(=O)O` (stereo not drawn): -0.18 K. With `NC(=O)c1ccc(COC(=O)c2cc(C3CC3)nc3ccccc23)cc1`, the “TSA(without NAD+) / Primary screening (TSA) / delta Tm (K)” value is -0.23 K.

Consider `CCOC(=O)C1=C(COC(=O)c2sc3nc(C)cc(C)c3c2-n2cccc2)NC(=O)NC1`, for which the “TSA(without NAD+) / Primary screening (TSA) / delta Tm (K)” value is -0.05 K. With `COCC(C)n1c(SCc2ccc(C(N)=O)cc2)nc2ccccc2c1=O` (stereo not drawn), the “TSA(without NAD+) / Primary screening (TSA) / delta Tm (K)” value is -0.12 K. Under `COc1cc(CN(C)C(=O)c2ccc(-n3cnnn3)cc2)ccc1OCc1ccccc1` stands -0.27 K; under `COc1ccc(C(=O)C2=C(O)C(=O)N(CCCN3CCOCC3)C2c2cccc(OC)c2)cc1` (stereo not drawn), -0.24 K.

Take `O=S(=O)(c1ccc(F)c(Cl)c1)N1CCNCC1`: the “TSA(without NAD+) / Primary screening (TSA) / delta Tm (K)” value is listed as -0.27 K. The same measure for `COc1cccc(C2C(C(=O)c3ccc4c(c3)OCCO4)=C(O)C(=O)N2CCCN2CCOCC2)c1` (stereo not drawn): 0.07 K; for `Cc1cccc(C(=O)OCc2ccc(C(=O)Nc3ccccc3)cc2)c1`: 0.06 K. The same measure for `O=C(NCc1ccccc1CS(=O)(=O)N1CCOCC1)C1=COCCO1`: -0.08 K. For `CCC(=O)CCCN1CCC(C(C)O)CC1` (stereo not drawn), the “TSA(without NAD+) / Primary screening (TSA) / delta Tm (K)” value is -0.15 K. For the molecule `O=C1NC(=S)NC(=O)C1=Cc1cn(-c2ccccc2)nc1-c1cc2ccccc2o1`, the “TSA(without NAD+) / Primary screening (TSA) / delta Tm (K)” value was 0.36 K. On to `CS(=O)(=O)Cc1ccc(C(=O)NCC2(N3CCCCC3)CCCCC2)cc1`, for which the “TSA(without NAD+) / Primary screening (TSA) / delta Tm (K)” value is given as -0.03 K.

Consider `Cc1sc2nc(-c3cccnc3)nc(N3CCC(C(N)=O)CC3)c2c1C`, for which the “TSA(without NAD+) / Primary screening (TSA) / delta Tm (K)” value came to 0.25 K. The same measure for `O=C(Nc1cccc(CNC(=O)N2CCC2)c1)c1ccccn1`: -0.07 K; for `COc1ccc(-c2nnc(S)o2)c(OC)c1`: -0.13 K; for `O=C(NC1CCCCC1O)c1cc2ccccc2[nH]1` (stereo not drawn): -0.04 K.

For the molecule `Cc1cccc(NCCC#N)c1C`, the “TSA(without NAD+) / Primary screening (TSA) / delta Tm (K)” value is -0.32 K. Under `C=CCNc1nnc(SCC(O)COC(c2ccccc2)c2ccccc2C)s1` (stereo not drawn) stands -0.18 K; under `Cc1sc(NC(=O)C2CCN(c3ncc(C(F)(F)F)cc3Cl)CC2)c(C(N)=O)c1C`, 0.28 K; under `Cc1cc2cc(NC(=O)Cc3c(C)nc(-c4ccccn4)[nH]c3=O)ccc2[nH]1`, -0.12 K. The same measure for `O=C1/C(=C/c2ccccc2[N+](=O)[O-])Oc2cc(O)ccc21`: -0.22 K; for `CCN(CC)C(=O)CN1CCCN(CC(=O)Nc2sccc2C(N)=O)CC1`: 0.07 K; for `COc1ccc(/C=C2/COc3ccc(Br)cc3C2=O)cc1OC(F)F`: 0.18 K. Under `CN(Cc1nc2ccccc2s1)C(=O)CSc1nnc(CC2CCS(=O)(=O)C2)o1` (stereo not drawn) stands -0.13 K.

For the molecule `CC(C)C(O)CCN` (stereo not drawn), the “TSA(without NAD+) / Primary screening (TSA) / delta Tm (K)” value was -0.02 K.

Take `O=c1[nH]cnc2c1ncn2[C@H]1CC[C@@H](CO)O1`: the “TSA(without NAD+) / Primary screening (TSA) / delta Tm (K)” value is given as -0.12 K.

On to `COc1cccc(/C=N/c2cccc(C(N)=O)c2)c1O`, for which the “TSA(without NAD+) / Primary screening (TSA) / delta Tm (K)” value was -0.23 K.

`Cc1ccc(C2C(C(=O)c3cc4ccccc4o3)=C(O)C(=O)N2CCCN2CCOCC2)o1` (stereo not drawn): the “TSA(without NAD+) / Primary screening (TSA) / delta Tm (K)” value stood at 0.02 K. The same measure for `CC1CCN(c2ccc(NC(=O)N(C)Cc3cnccn3)cc2)C1` (stereo not drawn): -0.07 K; for `NC(=O)C1CCN(C(=O)c2cc3ccc(Br)cc3[nH]2)C1` (stereo not drawn): -0.04 K; for `O=C(CN1CCN(C(=O)c2ccccc2COc2ccccc2)CC1)Nc1ccccc1Cl`: -0.13 K.

For `CC1OC1P(=O)([O-])[O-]` (stereo not drawn), the “TSA(without NAD+) / Primary screening (TSA) / delta Tm (K)” value is -0.15 K. Under `NC(=O)c1cc(NC(=O)CN2CC=C(c3ccc(O)cc3)CC2)cc(C(N)=O)c1` stands 0.15 K; under `COc1ccc(C(=O)C2=C(O)C(=O)N(CCCN3CCOCC3)C2c2ccc(C)cc2)cc1` (stereo not drawn), -0.01 K; under `COc1ccccc1C(C)Nc1cc(=O)n2ccccc2n1` (stereo not drawn), 0.07 K.

As to `Cc1ccc(-c2nc(C(=O)NCCc3nnc4ccccn34)cs2)o1`, the “TSA(without NAD+) / Primary screening (TSA) / delta Tm (K)” value is listed as -0.03 K.

Turning to `O=C(Nc1cc(S(=O)(=O)N2CCOCC2)ccc1Oc1ccc(F)cc1)C1=COCCO1`, the “TSA(without NAD+) / Primary screening (TSA) / delta Tm (K)” value is recorded as -0.12 K. Under `CC1CCN(CCCNC(=O)C2=NN(c3ccc(F)cc3)C(C(N)=O)C2)CC1` (stereo not drawn) stands -0.07 K; under `CCC(N)C(=O)NC` (stereo not drawn), -0.12 K; under `COc1ccc(C23CC4CC(CC(C(=O)NCc5ccc6c(c5)OCO6)(C4)C2)C3)cc1`, -0.11 K.

In the case of `Cc1nc(-c2cccnc2)nc(NCC(O)c2ccsc2)c1C` (stereo not drawn), the “TSA(without NAD+) / Primary screening (TSA) / delta Tm (K)” value is -0.02 K. The same measure for `COc1ccc(N(C)S(=O)(=O)c2cccc(C(=O)Nc3ccc4ccccc4c3)c2)cc1`: 0.82 K; for `O=C(CCSc1ncccn1)Nc1c(Cl)cccc1Cl`: -0.04 K; for `Cc1c(F)cc(C(N)=O)cc1NC(=O)c1sc2nc(C3CC3)nc(C)c2c1C`: 0.05 K. Under `c1ccc(N2CCN(c3cc(C4CC4)nc4ncnn34)CC2)cc1` stands -0.15 K; under `COc1cc(CN(C)C(=O)Cn2[nH]c(=O)c3ccccc3c2=O)ccc1OCc1ccccc1`, -0.12 K; under `CCS(=O)CCNC(=O)c1nc2ccccc2c(=O)[nH]1` (stereo not drawn), -0.02 K. Under `O=C(c1ccccc1)N1CCN(C(=O)c2cccc3ccccc23)CC1` stands -0.07 K; under `Cc1ccccc1NC(=O)CN1CC=C(c2c[nH]c3ccccc23)CC1`, 0.19 K; under `CNC(=O)CCN(C)S(=O)(=O)c1cccc(Br)c1`, 0.07 K. Take `CC1CN(C(=O)CC23CC4CC(CC(O)(C4)C2)C3)CC(c2ccccc2)O1` (stereo not drawn): the “TSA(without NAD+) / Primary screening (TSA) / delta Tm (K)” value was -0.12 K. Under `NCC(Cc1ccccn1)C(=O)O` (stereo not drawn) stands 0.02 K; under `Cc1ccc(N(C)S(=O)(=O)c2cccc(C(=O)Nc3ccccc3Cl)c2)cc1`, 0.07 K; under `Cc1ccc(NC(=O)NCCc2cccc(O)c2)cc1NC(=O)NCCc1cccc(O)c1`, 0.38 K. The same measure for `CCC(CNC(=O)NCc1noc(C)n1)N1CCc2ccccc2C1` (stereo not drawn): -0.12 K; for `NC(=O)C1CCN(c2ncnc3sc4c(c23)CCCCC4)CC1`: 0.36 K.
